Laboratory results: PubChem BioAssay AID1224830 (NIAID, 2016)

Screen: 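Host factors that control LPS-induced TNF expression in human macrophages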 (primary screen)
System: human THP-1 monocytic leukaemia cells, TNF dual-luciferase reporter clone, PMA-differentiated to macrophage-like cells
Reagent: siRNA pool against human genes, 50 nM
Timing: LPS for 4 h, given about 3 days after siRNA transfection
Treatment: bacterial LPS (TLR4 ligand), 10 ng/ml
Measured: 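TNF firefly reporter luminescence divided by renilla, normalised to the plate median, then turned into a robust z-score for each replicate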
Scale: TNF reporter robust z-score: higher = stronger TNF reporter response to LPS
Call rule: 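a well is active when its z-score exceeds 2.8 or falls below -1.5; control wells carry no call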
Here is an unselected part of about 18,000 reagents tested. Of all reagents, about 2,900 (16%) are marked active. 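Calls are made per well; low scores hint the gene aids the LPS response, high scores that it dampens it.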 Unmarked entries are inactive. Repeated entries: four replicate wells of each siRNA pool.

no.	gene	TNF reporter robust z-score
1	ZDHHC9 (zDHHC palmitoyltransferase 9)	-0.84
2	ZDHHC9 (zDHHC palmitoyltransferase 9)	-0.43
3	ZDHHC9 (zDHHC palmitoyltransferase 9)	-0.22
4	ZDHHC9 (zDHHC palmitoyltransferase 9)	-0.82
5	PCDH11X (protocadherin 11 X-linked)	0.07
6	PCDH11X (protocadherin 11 X-linked)	1.03
7	PCDH11X (protocadherin 11 X-linked)	0.13
8	PCDH11X (protocadherin 11 X-linked)	0.79
9	SELENOF (selenoprotein F)	0.14
10	SELENOF (selenoprotein F)	0.69
11	SELENOF (selenoprotein F)	0.3
12	SELENOF (selenoprotein F)	-0.64
13	AKIRIN1 (akirin 1)	-1.36
14	AKIRIN1 (akirin 1)	-0.56
15	AKIRIN1 (akirin 1)	-0.67
16	AKIRIN1 (akirin 1)	-0.9
17	ZNF672 (zinc finger protein 672)	-0.94
18	ZNF672 (zinc finger protein 672)	-1.08
19	ZNF672 (zinc finger protein 672)	-0.98
20	ZNF672 (zinc finger protein 672)	-0.65
21	GATD3 (glutamine amidotransferase class 1 domain containing 3)	0.59
22	GATD3 (glutamine amidotransferase class 1 domain containing 3)	0.43
23	GATD3 (glutamine amidotransferase class 1 domain containing 3)	0.22
24	GATD3 (glutamine amidotransferase class 1 domain containing 3)	0.56
25	ABI3BP (ABI family member 3 binding protein)	-0.31
26	ABI3BP (ABI family member 3 binding protein)	0.52
27	ABI3BP (ABI family member 3 binding protein)	0.04
28	ABI3BP (ABI family member 3 binding protein)	0.28
29	GPR88 (G protein-coupled receptor 88)	-0.31
30	GPR88 (G protein-coupled receptor 88)	1.3
31	GPR88 (G protein-coupled receptor 88)	-0.37
32	GPR88 (G protein-coupled receptor 88)	-0.41
33	SLC30A5	0.48
34	SLC30A5	0.35
35	SLC30A5	0.38
36	SLC30A5	0.31
37	POMC (proopiomelanocortin)	0.82
38	POMC (proopiomelanocortin)	0.42
39	POMC (proopiomelanocortin)	0.83
40	POMC (proopiomelanocortin)	2.18
41	OR5D14 (olfactory receptor family 5 subfamily D member 14)	-0.53
42	OR5D14 (olfactory receptor family 5 subfamily D member 14)	-0.68
43	OR5D14 (olfactory receptor family 5 subfamily D member 14)	-0.06
44	OR5D14 (olfactory receptor family 5 subfamily D member 14)	-0.28
45	CCDC144NL (CCDC144A N-terminal like (pseudogene))	0.44
46	CCDC144NL (CCDC144A N-terminal like (pseudogene))	-0.91
47	CCDC144NL (CCDC144A N-terminal like (pseudogene))	-0.79
48	CCDC144NL (CCDC144A N-terminal like (pseudogene))	-0.7
49	CCDC144NL (CCDC144A N-terminal like (pseudogene))	2.11
50	CCDC144NL (CCDC144A N-terminal like (pseudogene))	0.74
51	CCDC144NL (CCDC144A N-terminal like (pseudogene))	2.86 (active)
52	CCDC144NL (CCDC144A N-terminal like (pseudogene))	2.29
53	OTOF (otoferlin)	1.79
54	OTOF (otoferlin)	1.55
55	OTOF (otoferlin)	1.25
56	OTOF (otoferlin)	2.55
57	FIS1 (fission, mitochondrial 1)	5.6 (active)
58	FIS1 (fission, mitochondrial 1)	3.99 (active)
59	FIS1 (fission, mitochondrial 1)	3.31 (active)
60	FIS1 (fission, mitochondrial 1)	-0.28
61	FCF1 (FCF1 rRNA-processing protein)	1.37
62	FCF1 (FCF1 rRNA-processing protein)	0.73
63	FCF1 (FCF1 rRNA-processing protein)	0.48
64	FCF1 (FCF1 rRNA-processing protein)	0.4
65	CEBPB (CCAAT enhancer binding protein beta)	0.21
66	CEBPB (CCAAT enhancer binding protein beta)	-0.42
67	CEBPB (CCAAT enhancer binding protein beta)	-0.61
68	CEBPB (CCAAT enhancer binding protein beta)	0.62
69	TSKU (tsukushi, small leucine rich proteoglycan)	0.01
70	TSKU (tsukushi, small leucine rich proteoglycan)	0.12
71	TSKU (tsukushi, small leucine rich proteoglycan)	-0.62
72	TSKU (tsukushi, small leucine rich proteoglycan)	-0.21
73	SLC22A2	0.21
74	SLC22A2	-1.35
75	SLC22A2	-0.46
76	SLC22A2	-0.83
77	VSX2 (visual system homeobox 2)	0.38
78	VSX2 (visual system homeobox 2)	-0.33
79	VSX2 (visual system homeobox 2)	0.1
80	VSX2 (visual system homeobox 2)	-0.17
81	VDAC2 (voltage dependent anion channel 2)	-0.37
82	VDAC2 (voltage dependent anion channel 2)	-0.91
83	VDAC2 (voltage dependent anion channel 2)	-0.06
84	VDAC2 (voltage dependent anion channel 2)	-0.17
85	ZNF473 (zinc finger protein 473)	-1.15
86	ZNF473 (zinc finger protein 473)	-0.8
87	ZNF473 (zinc finger protein 473)	-0.67
88	ZNF473 (zinc finger protein 473)	-0.87
89	DCPS (decapping enzyme, scavenger)	-0.82
90	DCPS (decapping enzyme, scavenger)	0.95
91	DCPS (decapping enzyme, scavenger)	-0.09
92	DCPS (decapping enzyme, scavenger)	-0.29
93	DEFB104B (defensin beta 104B)	-0.8
94	DEFB104B (defensin beta 104B)	-0.64
95	DEFB104B (defensin beta 104B)	-0.06
96	DEFB104B (defensin beta 104B)	-0.82
97	GPR139 (G protein-coupled receptor 139)	-0.7
98	GPR139 (G protein-coupled receptor 139)	-0.95
99	GPR139 (G protein-coupled receptor 139)	-0.64
100	GPR139 (G protein-coupled receptor 139)	-0.47
101	CDRT15 (CMT1A duplicated region transcript 15)	-0.82
102	CDRT15 (CMT1A duplicated region transcript 15)	-1.04
103	CDRT15 (CMT1A duplicated region transcript 15)	-0.64
104	DCST2 (DC-STAMP domain containing 2)	3.87 (active)
105	DCST2 (DC-STAMP domain containing 2)	0.94
106	DCST2 (DC-STAMP domain containing 2)	-0.93
107	DCST2 (DC-STAMP domain containing 2)	0.16
108	ZNFX1 (zinc finger NFX1-type containing 1)	0.66
109	ZNFX1 (zinc finger NFX1-type containing 1)	0.23
110	ZNFX1 (zinc finger NFX1-type containing 1)	-0.45
111	ZNFX1 (zinc finger NFX1-type containing 1)	0.12

Entries listed so far whose gene name starts with G or g:
gene	TNF reporter robust z-score
GATD3 (glutamine amidotransferase class 1 domain containing 3)	0.59
GATD3 (glutamine amidotransferase class 1 domain containing 3)	0.43
GATD3 (glutamine amidotransferase class 1 domain containing 3)	0.22
GATD3 (glutamine amidotransferase class 1 domain containing 3)	0.56
GPR88 (G protein-coupled receptor 88)	-0.31
GPR88 (G protein-coupled receptor 88)	1.3
GPR88 (G protein-coupled receptor 88)	-0.37
GPR88 (G protein-coupled receptor 88)	-0.41
GPR139 (G protein-coupled receptor 139)	-0.7
GPR139 (G protein-coupled receptor 139)	-0.95
GPR139 (G protein-coupled receptor 139)	-0.64
GPR139 (G protein-coupled receptor 139)	-0.47
